According to patent US9814720B2, “Compositions and methods of inhibiting IL-17 expression of neutrophils” (priority 2014, dated 2017):
At least one compound was matched to its structure with a doubt left.

Tests used:
[1] = test system: RFP-expressing A. fumigatus corneal infection; test: Murine model of fungal keratitis with in vivo blockade of STAT3 phosphorylation; design: species or system C57BL/6 mice
A. fumigatus hyphae = test: In vitro fungal killing assay (hyphal coincubation) with murine neutrophils; format: cell-based, Aspergillus fumigatus; settings: IL-6/23-stimulated, inhibitor 20 μM, plus rIL-17A, FIG. 6D
Description: Aspergillus strains—For cornea infections and in vitro fungal killing assays, an RFP expressing strain of A. fumigatus (Af-dsRed) was used. This strain is gpdA promoter driven to constitutively express monomeric dsRed. For subcutaneous “priming” injections, heat-killed, swollen conidia Aspergillus fumigatus strain Af-BP was used. For the Aspergillus hyphal extract used in ROS assay, A. fumigatus strain Af-BP hyphae were pulverized in liquid nitrogen, filtered through a 30 μm pre-separation filter (Miltenyi Biotec) and protein measured by the BCA method (Pierce). Aspergillus hyphal extracts (AspHE) were stored at −20° C. and used at a final concentration of 1 mg/ml.
A hyphal coincubation assay was used to study the ability of murine and human neutrophils to inhibit A. fumigatus hyphal growth as described. Briefly, 12,500 A. fumigatus dsRed expressing conidia (strain Af-dsRed) per 200 μl Sabouraud dextrose media were added to wells of black-walled 96 well plates with an optically clear bottom (CoStar 3720). […]
Murine and human neutrophils were incubated with p-STAT3 (20 μM Stattic or 20 μM INC424) or RORγt inhibitors (20 μM SR1001) for 2 h. […] After 16 h the wells were washed with PBS and the dsRed fungal mass was quantified in a 96-well fluorometer at 550/600 nm excitation/emission filter (Synergy HT, Biotek).

## N#CC[C@H](C1CCCC1)n1cc(-c2ncnc3[nH]ccc23)cn1 [INC424, Ruxolitinib]
[1]; 24 h post-infection, FIG. 7D
  gene expression of Il17a in corneal cells: not in the pSTAT3 inhibited-primedinfected (α-pSTAT3) mice
[1]; 24 h post-infection, flow cytometry, FIG. 7E
  p-STAT3/IL-17-producing neutrophils in the corneas: only identified in the corneas of primed-infected mice (CTRL)
[1]; 24 h post-infection, vs primed CTRL, FIG. 7C
  total number of neutrophils infiltrating the infected corneas: no difference
[1]; oral gavage twice a day for 5 days before priming, 24 h post-infection, vs primed CTRL, FIG. 7B
  RFP-fungal mass in cornea: (CTRL) had significantly lower RFP-fungal mass than p-STAT3 inhibited-primed-infected C57BL/6 mice
[1]; oral gavage twice a day for 5 days, flow cytometry, FIG. 7A
  systemic p-STAT3 in total bone marrow cells: systemic blockade of p-STAT3 was confirmed
A. fumigatus hyphae
  hyphal killing activity: enhanced hyphal killing activity was detected
